Test results from US12037375B2, “Protein variant and composition for treating neurodegenerative disease using the same” (KOREA UNIVERSITY RESEARCH AND BUSINESS FOUNDATION, priority 2021, dated 2024).
Part of at least one peptide drawing is inferred or uncertain, most often the ends.

Tested on: amyloid beta (1-42)
Experiment: ThT fluorescence assay of amyloid beta fibrosis
Assay type: biochemical
Conditions: 10 uM sample alone, 37° C.

For CC[C@H](C)[C@H](NC(=O)[C@H](C)NC(=O)CNC(=O)[C@H](CCCCN)NC(=O)[C@H](CC(N)=O)NC(=O)[C@H](CO)NC(=O)CNC(=O)[C@@H](NC(=O)[C@H](CC(=O)O)NC(=O)[C@H](CCC(=O)O)NC(=O)[C@H](C)NC(=O)[C@H](Cc1ccccc1)NC(=O)[C@H](CC(N)=O)NC(=O)[C@@H](NC(=O)[C@H](CC(C)C)NC(=O)[C@H](CCCCN)NC(=O)[C@H](CCC(N)=O)NC(=O)[C@H](Cc1c[nH]cn1)NC(=O)[C@H](Cc1c[nH]cn1)NC(=O)[C@@H](NC(=O)[C@H](CCC(=O)O)NC(=O)[C@H](Cc1ccc(O)cc1)NC(=O)CNC(=O)[C@H](CO)NC(=O)[C@H](CC(=O)O)NC(=O)[C@H](Cc1c[nH]cn1)NC(=O)[C@H](CCCNC(=N)N)NC(=O)[C@H](Cc1ccccc1)NC(=O)[C@H](CCC(=O)O)NC(=O)[C@H](C)NC(=O)[C@@H](N)CC(=O)O)C(C)C)C(C)C)C(C)C)C(=O)N[C@@H](CC(N)=O)C(=O)NCC(=O)N[C@@H](CC(N)=O)C(=O)N[C@@H](CCSC)C(=O)N[C@H](C(=O)NCC(=O)NCC(=O)N[C@H](C(=O)N[C@H](C(=O)N[C@H](C(=O)N[C@@H](CC(N)=O)C(=O)O)[C@@H](C)CC)C(C)C)C(C)C)C(C)C, the “fibrosis (rate of fiber formation, Thioflavin T fluorescence)” value was “inhibited fibrosis”.
